Measured values as given in patent US20240327787A1, “CULTURE MEDIUM, COATING MATRIX AND METHOD FOR EXPANDING MIDBRAIN DOPAMINERGIC PROGENITOR CELLS” (NUWACELL BIOTECHNOLOGIES CO., LTD., priority 2022, published 2024).
Some of these results come from one statement about several compounds together.

System: imDAPs
Test: imDAP expansion efficiency (cell number, expansion fold, Population Doubling Time)
Type: cell-based, human
Settings: VTN-containing coating; 5 μM SB431542; 6 days; vs about 20 fold or more without both DLL4 and SB431542
Method: imDAPs were produced according to the method described in CN201910169525.0. The imDAPs (P0) were seeded on VTN-coated plates (1 μg/cm^2) at a density of 1×10^5cells/cm^2 in the expansion medium (50% DMEM/F12, 50% Neurobasal™ medium, 1% (v/v) Glutamax, 2% (v/v) B27 (50×), 0.2 μM LDN193189, 3 μM CHIR99021, 100 ng/mL FGF8b, 5 μM Blebbistatin). The medium was changed every day. When imDAPs reach 100% confluence (4-5 days), cells were passaged enzymatically with 1× TrypLE, centrifuged at 250 g for 5 minutes, counted and replaced on new VTN-coated plates (1 μg/cm^2) at a density of 1×10^5 cells/cm^2 in the expansion medium. imDAPs were continuously expanded for 6 passages. At each passage, imDAPs were harvested at an expansion fold 5˜10 (over the initial number of imDAPs plated).
imDAPs were produced according to the method described in CN201910169525.0. The imDAPs (P0) were seeded on DLL4-coated (1 μg/cm^2), VTN-coated (1 μg/cm^2) and DLL4/VTN-coated (1 μg/cm^2 for each) plates at a low density of 1×10^4 cells/cm^2 respectively, and cultured in the expansion medium in the absence or presence of 5 μM SB431542. […] The typical cell morphology on day 4 was recorded (FIG. 4A). The cell number of each group was counted by Vi-cell cytometer (FIG. 4B). The cells of each group were stained with Foxa2-PE antibody (BD, #561589), the percentage of Foxa2+ imDAPs were analyzed by flow cytometry (FIG. 4C). […]

Compound | imDAP expansion efficiency (FIG. 4B) [fold]
NC(=O)c1ccc(-c2nc(-c3ccc4c(c3)OCO4)c(-c3ccccn3)[nH]2)cc1 [SB431542] | ≥ 32
DLL4: Notch agonist Delta-Like 4, used as coating matrix | ≥ 32
